# Data taken from paper PMC7819943, “Rice protein-binding microarrays: a tool to detect cis-acting elements near promoter regions in rice”.
# The chains behind the UniProt entries cited, without tags or fusion partners.
# UniProt Q0JBA9, entry or part of it: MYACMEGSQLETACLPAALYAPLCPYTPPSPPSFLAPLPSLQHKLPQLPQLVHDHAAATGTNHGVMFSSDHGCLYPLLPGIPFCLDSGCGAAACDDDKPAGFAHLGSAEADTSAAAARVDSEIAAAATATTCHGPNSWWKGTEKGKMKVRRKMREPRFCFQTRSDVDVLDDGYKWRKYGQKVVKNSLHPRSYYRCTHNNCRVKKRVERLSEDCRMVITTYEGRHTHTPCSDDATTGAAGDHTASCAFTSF
# This is one part of the list.
# Target: OsWRKY34 (Oryza sativa, UniProt Q0JBA9 1-250)
# Assay: protein-binding microarray (RPBM); PBS, 2% BSA, 51.3 ng/ul salmon testes DNA, 50 uM zinc acetate, 200 nM TF, 25 C, 1 h; high values mean tight binding
# Conditions: protein: recombinant; tags: N-terminal polyhistidine and DsRed monomer fusion (pET32a); label: CyDye5-dUTP incorporated in the synthesized complementary strand; 3' TTTTT single-stranded linker to array surface; dsDNA, one strand shown
# In short: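 Using Ni–NTA, transcription factors fused N-terminally to polyhistidine and DsRed were purified after expression in E. coli BL21-CodonPlus. These were incubated at 200 nM with a blocked, double-stranded custom Agilent array for 1 h at 25 °C in a buffer containing 50 µM zinc acetate, and the array was washed. The binding signal is per-feature fluorescence intensity (arbitrary units) on an Axon 4000B scanner.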
row,Sequence,binding signal
1,TTAACTTTTACTCTAATTTATTCTCCTGTACCTTTTTATACGGAGTCACCTAGTGCAG,8250 fluorescence intensity (a.u.)
2,GGATTAGGATCTTCTTCAGTCAACTATACGTCTGTATCGTCGGAGTCACCTAGTGCAG,9360 fluorescence intensity (a.u.)
3,CTCCACCCCACAATCTCTCTCTCTCTCTCTCTCTCTCTCTCGGAGTCACCTAGTGCAG,9620 fluorescence intensity (a.u.)
4,AGTCCACTTACATGTGAGCCACACATGGTTTTTCTTTCTGCGGAGTCACCTAGTGCAG,10300 fluorescence intensity (a.u.)
5,GCCGCGCTCGCCCATCGCCGCTCCGTCGCCACGCTCGCCCCGGAGTCACCTAGTGCAG,9640 fluorescence intensity (a.u.)
6,GTGTGTGGGTGGTGGTATATTTTTTTTCTTTCTCTTGGTTCGGAGTCACCTAGTGCAG,12800 fluorescence intensity (a.u.)
7,GTAATTGGTTTGGTCAACAGCACAGCTAGCTTCTCCGTACCGGAGTCACCTAGTGCAG,10300 fluorescence intensity (a.u.)
8,TTGCCGTCGTCCGCCGCCCGCCCCTCTGCGCAGAGAGAGGCGGAGTCACCTAGTGCAG,9540 fluorescence intensity (a.u.)
9,ACTCCCTCCGTTTCAAAATGTTTGACATCATTGACTTTTTCGGAGTCACCTAGTGCAG,11100 fluorescence intensity (a.u.)
10,GCCCATCAAGGCTTTCACCCGCGTTTTCTCATTCAGTCCCCGGAGTCACCTAGTGCAG,8300 fluorescence intensity (a.u.)
11,CATATTAAGGTTTTTTCATCGAAGTTTATTTTTCAGCCTTCGGAGTCACCTAGTGCAG,8070 fluorescence intensity (a.u.)
12,TGCACCTGGCCGCGTTGACCGTTCGAAATGTATATATTCCCGGAGTCACCTAGTGCAG,19600 fluorescence intensity (a.u.)
13,ATTGTGTGTTTGTGGTTGGTTGGCCAATAATGAATTGAAACGGAGTCACCTAGTGCAG,8400 fluorescence intensity (a.u.)
14,TGGGTGGGGTGGAGGGCCGAGCGCGAGAGATTTCGGAGAGCGGAGTCACCTAGTGCAG,14900 fluorescence intensity (a.u.)
15,CCCGCCGCGCGCCTCCTCCCCGCCTCGCCGCCGGCGCGCACGGAGTCACCTAGTGCAG,8240 fluorescence intensity (a.u.)
16,TCGACTGTCTCAAATCAGTTTGCTTTCTTGATCTTTCTGCCGGAGTCACCTAGTGCAG,11200 fluorescence intensity (a.u.)
17,GGGACGAAGATATCTCTCGTTTCATTTCATGCATATCACCCGGAGTCACCTAGTGCAG,8250 fluorescence intensity (a.u.)
18,TCTGTGGCCATCTCCTCCTAGTCCTAGGCTCGCGTCAATGCGGAGTCACCTAGTGCAG,9610 fluorescence intensity (a.u.)
19,GCCTCTAATGTCAATCAGTTTCGCTTTCCATCCTTCTCATCGGAGTCACCTAGTGCAG,10500 fluorescence intensity (a.u.)
20,ACAGTCAGCTGTGTTTTTGTTATTTGCTTCGATTATCTTCCGGAGTCACCTAGTGCAG,9310 fluorescence intensity (a.u.)
21,AGCACACCGAAATTCCAACGAGAACCCCACGCATTATTCCCGGAGTCACCTAGTGCAG,8210 fluorescence intensity (a.u.)

# Two records picked at random from the list so far:
row,Sequence,binding signal
10,GCCCATCAAGGCTTTCACCCGCGTTTTCTCATTCAGTCCCCGGAGTCACCTAGTGCAG,8300 fluorescence intensity (a.u.)
3,CTCCACCCCACAATCTCTCTCTCTCTCTCTCTCTCTCTCTCGGAGTCACCTAGTGCAG,9620 fluorescence intensity (a.u.)

# (listing goes on)

row,Sequence,binding signal
1,AACGCAACCACCACAACACGCCATGCATCCCATCAAACCGCGGAGTCACCTAGTGCAG,9960 fluorescence intensity (a.u.)
2,CCTATATTTTCTTCATTTACCGGCGCACTCTCGCCCGAACCGGAGTCACCTAGTGCAG,10100 fluorescence intensity (a.u.)
3,CACCTTCATGCCCAAAATTTACATGAATTCCTTCCAAACACGGAGTCACCTAGTGCAG,8100 fluorescence intensity (a.u.)
4,AGTTCACTTTAGGTCCCTCTATTTGTCGTCCAGTCTGATTCGGAGTCACCTAGTGCAG,8180 fluorescence intensity (a.u.)
5,CCGTCACTGCATCCGTTCTACTAATAGTACTCCTACTCACCGGAGTCACCTAGTGCAG,14400 fluorescence intensity (a.u.)
6,TCCAGTGTCGTCCTCTGCCGCGTCGGCGTCCCCGTCCGGCCGGAGTCACCTAGTGCAG,11200 fluorescence intensity (a.u.)
7,TTATACCACCGGATGCTGACACCATTCATCCGCTCTTCCTCGGAGTCACCTAGTGCAG,10700 fluorescence intensity (a.u.)
8,AGCTCAGCTCTTCCGTGCTTGGATTGGTCATTATTTTTTTCGGAGTCACCTAGTGCAG,9590 fluorescence intensity (a.u.)
9,AGATCGTATAGTGTCTGTTTTCTTCCCGGACTGTTAGTTGCGGAGTCACCTAGTGCAG,10800 fluorescence intensity (a.u.)
10,CACAAAAAAGCGCCGTTGTGTTTGACTTTCTAGCTGGCTACGGAGTCACCTAGTGCAG,9930 fluorescence intensity (a.u.)
11,ACTTCTGCTTCCCTCCACGGGCCTAATTATGGGGTCTGTCCGGAGTCACCTAGTGCAG,8560 fluorescence intensity (a.u.)
12,TTGTCTTGTTCATCTGTCCTGACTTGTTCTTTTTGTTGTACGGAGTCACCTAGTGCAG,9280 fluorescence intensity (a.u.)
13,GCACACCAATCTCGCTCGCACCACGCCGAAACGCACGTCTCGGAGTCACCTAGTGCAG,8140 fluorescence intensity (a.u.)
14,GAAATCAACTACTCCTATTTTCTTCCATGGGGACGGGACACGGAGTCACCTAGTGCAG,11400 fluorescence intensity (a.u.)
15,AATATGTCACATCCGGTCCTGATTCGTTTTTTATGGGACTCGGAGTCACCTAGTGCAG,12400 fluorescence intensity (a.u.)
16,AGACGCTCTGAAACTCTGTTCTTGTTGGGTCTTTTTTTTTCGGAGTCACCTAGTGCAG,9500 fluorescence intensity (a.u.)
17,ACCCTTTTTGTTTTTGTATTTTTATCATTTCTGTCCACAACGGAGTCACCTAGTGCAG,9760 fluorescence intensity (a.u.)
18,GTCTTCTAGTGATGCTCGCTATTTGGTTCTGGGGCTTCCTCGGAGTCACCTAGTGCAG,11900 fluorescence intensity (a.u.)
19,CCTATCCCTTTCTCCGCCACCTTTGTCATCGCACAGTCCACGGAGTCACCTAGTGCAG,8420 fluorescence intensity (a.u.)
20,CCGGCAGCCACCCATGGTCCATCAGTTCTTCACACACTTTCGGAGTCACCTAGTGCAG,9890 fluorescence intensity (a.u.)
21,TTTCTGGGAGACATTCATTTCCAGCGATCTCTCTAATCCTCGGAGTCACCTAGTGCAG,8050 fluorescence intensity (a.u.)
